Data on 1 substance can be found in PMC8786475.

Amino acid sequences for entries named in this document (tags omitted).
UniProt P04818: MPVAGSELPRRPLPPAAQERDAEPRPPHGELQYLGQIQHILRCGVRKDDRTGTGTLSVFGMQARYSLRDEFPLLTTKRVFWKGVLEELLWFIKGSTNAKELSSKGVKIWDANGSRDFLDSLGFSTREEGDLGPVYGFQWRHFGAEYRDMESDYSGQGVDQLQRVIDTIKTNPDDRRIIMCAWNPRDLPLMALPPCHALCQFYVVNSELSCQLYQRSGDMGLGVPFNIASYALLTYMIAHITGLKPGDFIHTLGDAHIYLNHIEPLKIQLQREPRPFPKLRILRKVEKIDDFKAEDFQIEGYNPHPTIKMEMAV
UniProt P17096: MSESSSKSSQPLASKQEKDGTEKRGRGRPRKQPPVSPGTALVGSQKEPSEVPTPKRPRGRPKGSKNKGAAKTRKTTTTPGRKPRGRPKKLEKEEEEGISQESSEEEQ

For the test, the target named is TYMS (human (endogenous in EPCs of sepsis patients)) (UniProt P04818). Kind of test: co-IP; cells lysed in IP lysis buffer on ice; supernatant split into whole protein, IgG and IP; antibodies overnight at 4°C; protein A/G agarose beads 2 h; western blot; precipitating antibody not told.

Results are given in words; binding and its absence hold for the method and conditions named. In cells and extracts the contact can be indirect. Some entries that bind do so weakly or less than the wild type.

For “High mobility group A1 (HMGA1) (from UniProt P17096 1-107)”, the binding entry was “binds”.
